Experimental data published in the supplement of paper PMC4604168 (melanoma cell lines).
Some of the results follow. Repeats are few or missing, and single values can be far off.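 Imaging used 1,536-well plates; nuclei positive for cleaved PARP by antibody were divided by total DNA-stained nuclei to yield the apoptosis fraction. Doses for screening kept most cells viable, and cell lines differ markedly in resting and induced cleaved-PARP levels.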

These molecules were tested on A2058 (assay: cleaved PARP positive nuclei fraction relative to DMSO control; melanoma cells; higher = more apoptosis). Conditions: library dose: low library concentration; 72 h.

SMILES	cleaved PARP positive nuclei fraction [%]
C[C@@H](N)c1ccc(C(=O)Nc2ccnc3[nH]ccc23)cc1 + COC(=O)c1sccc1S(=O)(=O)Nc1ccc(Nc2ccccc2)cc1OC [GSK0660] (first compound 0.4 µM, partner dose 1 µM)	64.3
CCCCCCCCc1ccc(CCC(N)(CO)CO)cc1 [fingolimod] + COc1ccc(-c2ccc3c(N4CCOCC4)nc(N4C[C@@H](C)O[C@@H](C)C4)nc3n2)cc1CO [KU0063794] (first compound 2 µM, partner dose 0.02 µM)	147
CCCCCCCCc1ccc(CCC(N)(CO)CO)cc1 [fingolimod] + N#Cc1c(O)c2c(-c3ccc(-c4ccccc4O)cc3)csc2[nH]c1=O [A769662] (first compound 2 µM, partner dose 2 µM)	98
